# In the supplement of paper PMC9135407:
# Values joined by “and” are separate entries in the source; they are usually repeats but may differ in a detail not shown here. Equal entries are not always repeated. Structures can show the parent of a compound that is named as a salt. ± gives the standard deviation of the averaged measurements. Some of the results follow. Plates or batches differ in their baseline, so values are only roughly comparable.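 Assay uses culture-activated primary human stellate myofibroblasts; lipid droplet recovery indicates inactivation. Measured: proportion of Hoechst-counted cells over a plate-specific Bodipy cutoff, duplicate wells, DMSO and nortriptyline as per-plate negative and positive controls. A hit scores, control-normalized, above the plate's top-tenth-percentile nortriptyline wells or ranks among its three best wells. Final well concentrations not reported.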
# Tested on: primary human hepatic stellate cells (donor 1)
# Test: percent Bodipy-positive cells; higher = more lipid droplet accumulation
# Conditions: 48 h
# [1] = library stock concentration: 10 mM
# [2] = library stock concentration: 1 mM
# [3] = library stock concentration: 3.33 mM
# [4] = library stock concentration: 80 uM
# [5] = library stock concentration: 400 uM
# [6] = library stock concentration: 2 mM
smiles,measurement,setting,value
O=S(=O)(O)NC1CCCCC1,percent Bodipy-positive cells,[1],23.2 ± 3.9%
CC[C@]12CCCN3CCc4c(n(c5ccccc45)[C@](O)(C(=O)OC)C1)[C@@H]32 [Epivincamine],percent Bodipy-positive cells,,20.2 ± 0.44%
CC(C)NC[C@@H](O)COc1cccc2ccccc12 [Dexpropranolol hydrochloride],percent Bodipy-positive cells,library stock concentration: 6.8 mM,61.5 ± 5.9%
same,percent Bodipy-positive cells,[1],21.6 ± 4.4%
CC(C)NC[C@@H](O)COc1cccc2ccccc12 [(R)-Propranolol hydrochloride],percent Bodipy-positive cells,,43.04 ± 0.43%
CC(C)NC[C@@H](O)COc1cccc2ccccc12 [(R)-(+)-Propranolol hydrochloride],percent Bodipy-positive cells,[1],46.2 ± 4.8%
OC1(c2ccc(Cl)cc2)CCN(Cc2c[nH]c3ccccc23)CC1,percent Bodipy-positive cells,[1],99.81 ± 0.27%
CCc1cn([C@H]2C[C@H](O)[C@@H](CO)O2)c(=O)[nH]c1=O [Edoxudine],percent Bodipy-positive cells,library stock concentration: 7.8 mM,24.1 ± 12%
same,percent Bodipy-positive cells,[1],60.6 ± 3.4%
O=C(NCc1cccc(O)c1)Nc1nc(-c2ccncc2)cs1,percent Bodipy-positive cells,[1],100%
CCCCC/C=C\C[C@@H](O)/C=C/C=C/C=C\[C@@H](O)CCCC(=O)O [Leukotriene B4],percent Bodipy-positive cells,library stock concentration: 100 uM,16.5 ± 15%
COc1cc2c(cc1C(F)(F)F)N(C(=O)Nc1cc(F)cc(-c3cccnc3)c1)CC2,percent Bodipy-positive cells,[1],99.3 ± 1%
COC(=O)C1=CC[C@@]23CC[C@@H]([C@@](C)(/C=C/C=C(\C)C(=O)O)OC2=O)[C@@]3(OC(C)=O)CC1 [Pseudolaric Acid B],percent Bodipy-positive cells,[2],17.9 ± 4.3%
O=c1[nH]c(=O)n(C2CCCO2)cc1F (configuration not stated) [Ftorafur],percent Bodipy-positive cells,[1],7.58 ± 2.3%
O=c1[nH]c(=O)n(C2CCCO2)cc1F (configuration not stated),percent Bodipy-positive cells,[3],7.79 ± 1.7%
same,percent Bodipy-positive cells,[1],7.44% and 9.57%
Cc1cc2c(F)c(Oc3ncnn4cc(OC[C@@H](C)OC(=O)[C@H](C)N)c(C)c34)ccc2[nH]1,percent Bodipy-positive cells,[3],9.92 ± 2.7%
same,percent Bodipy-positive cells,[1],35.9 ± 3.3%
CC(NCCC(c1ccccc1)c1ccccc1)c1ccccc1 (configuration not stated) [Fendiline hydrochloride],percent Bodipy-positive cells,,98.2 ± 2.5%
same,percent Bodipy-positive cells,[1],78.8 ± 3.6%
C[C@@H]1COCCN1c1cc(C2(S(C)(=O)=O)CC2)nc(-c2cccc3[nH]ccc23)n1,percent Bodipy-positive cells,[4],7 ± 2.8%
same,percent Bodipy-positive cells,[5],17.8 ± 9.8%
same,percent Bodipy-positive cells,[6],3.96 ± 0.99%
same,percent Bodipy-positive cells,[1],7.32 ± 1.9%
CCOC(=O)Nc1cc(-c2ccc(C)c(NS(C)(=O)=O)c2)nn2c(C)nnc12 [Bromosporine],percent Bodipy-positive cells,[3],47.5 ± 3.3%
same,percent Bodipy-positive cells,[1],77.5 ± 4.9%
"CCC(CO)Nc1nc(NCc2ccccc2)c2ncn(C(C)C)c2n1 [Roscovitine, (S)-Isomer]",percent Bodipy-positive cells,[3],17.5 ± 0.43%
CCCCCCCCCCCCC(O)C(=O)O (configuration not stated) [2-Hydroxymyristic Acid],percent Bodipy-positive cells,[2],9.46 ± 1.8%
CCCCCCCCCCCCC(O)C(=O)O (configuration not stated) [2-Hydroxymyristic acid],percent Bodipy-positive cells,[2],5.44 ± 3.3%
CCN(CC)CCOc1ccc(Cc2ccccc2)cc1.O=C(O)/C=C/C(=O)O [DPPE fumarate],percent Bodipy-positive cells,[1],56.5 ± 3.8%
COc1ccc(-c2cnc3c(-c4ccsc4)cnn3c2)cc1 [VEGF Receptor 2 Kinase Inhibitor IV],percent Bodipy-positive cells,[3],13.9 ± 3.6%
C#CC[C@H](c1nc2cc(Cl)ccc2c(=O)n1Nc1ccccc1)N(CCCN)C(=O)c1cccc(Cl)c1F,percent Bodipy-positive cells,[3],99.2 ± 1.2%
same,percent Bodipy-positive cells,[1],98.3 ± 2.4%
Cc1c(N(C)CS(=O)(=O)O)c(=O)n(-c2ccccc2)n1C [Dipyrone],percent Bodipy-positive cells,,10.5 ± 6.5%
same,percent Bodipy-positive cells,library stock concentration: 6 mM,9.82 ± 2.3%
same,percent Bodipy-positive cells,[1],26.4 ± 10%
CCCCCC/C=C\CCCCCCCC(=O)OCC [Palmitoleic Acid ethyl ester],percent Bodipy-positive cells,[2],10.6 ± 3.6%
CN(C)[C@@H]1C(O)=C(C(=O)NCN2CCCC2)C(=O)[C@@]2(O)C(O)=C3C(=O)c4c(O)cccc4[C@@](C)(O)[C@H]3C[C@@H]12 [Rolitetracycline],percent Bodipy-positive cells,,7.84 ± 1.4%
CN(C)[C@@H]1C(O)=C(C(=O)NCN2CCCC2)C(=O)[C@@]2(O)C(O)=C3C(=O)c4c(O)cccc4[C@@](C)(O)[C@H]3C[C@@H]12,percent Bodipy-positive cells,[1],16.8 ± 10%
C[C@@H]1CCN(C(=O)CC#N)C[C@@H]1N(C)c1ncnc2[nH]ccc12,percent Bodipy-positive cells,[5],8.95 ± 2.2%
same,percent Bodipy-positive cells,[6],24.8 ± 14%
same,percent Bodipy-positive cells,[3],6.43% and 7.49%
same,percent Bodipy-positive cells,[1],21.7% and 8.79% and 11.9%
CC(=O)OCC(CCn1cnc2cnc(N)nc21)COC(C)=O [Famciclovir],percent Bodipy-positive cells,[3],14.2 ± 2%
same,percent Bodipy-positive cells,library stock concentration: 6.2 mM,7.66% and 9.36%
CC(=O)OCC(CCn1cnc2cnc(N)nc21)COC(C)=O,percent Bodipy-positive cells,[1],7.68 ± 0.51%
COc1ccc([C@@H]2CC(=O)c3c(O)cc(O[C@@H]4O[C@H](CO)[C@@H](O)[C@H](O)[C@H]4O[C@@H]4O[C@@H](C)[C@H](O)[C@@H](O)[C@H]4O)cc3O2)cc1O [Neohesperidin],percent Bodipy-positive cells,[3],10 ± 2.9%
same,percent Bodipy-positive cells,[1],16.2 ± 0.69%
NNc1nncc2ccccc12 [Hydralazine hydrochloride],percent Bodipy-positive cells,,22.8 ± 4.7%
C=CC(=O)Nc1cccc(Oc2nc(Nc3ccc(N4CCN(C)CC4)cc3OC)ncc2Cl)c1,percent Bodipy-positive cells,[4],12.2 ± 2.6%
same,percent Bodipy-positive cells,[5],20.9 ± 9.8%
same,percent Bodipy-positive cells,[6],33.5 ± 4.6%
same,percent Bodipy-positive cells,[3],56.1 ± 10%
O=C(/C=C/c1ccc(O)c(O)c1)OCCc1ccccc1 [Caffeic Acid phenylethyl ester],percent Bodipy-positive cells,[2],10.5 ± 3%
O=C(/C=C/c1ccc(O)c(O)c1)OCCc1ccccc1 [Caffeic Acid Phenethyl Ester],percent Bodipy-positive cells,[3],48.1 ± 1.4%
same,percent Bodipy-positive cells,[1],75.6 ± 11%
Oc1cccc(-c2nc(N3CCOCC3)c3oc4ncccc4c3n2)c1,percent Bodipy-positive cells,[1],87.8 ± 1.9%

# Exported with tabs: part of the list above
smiles	measurement	setting	value
CC(C)NC[C@@H](O)COc1cccc2ccccc12 [Dexpropranolol hydrochloride]	percent Bodipy-positive cells	library stock concentration: 6.8 mM	61.5 ± 5.9%
same	percent Bodipy-positive cells	[1]	21.6 ± 4.4%
CC(C)NC[C@@H](O)COc1cccc2ccccc12 [(R)-Propranolol hydrochloride]	percent Bodipy-positive cells		43.04 ± 0.43%
CC(C)NC[C@@H](O)COc1cccc2ccccc12 [(R)-(+)-Propranolol hydrochloride]	percent Bodipy-positive cells	[1]	46.2 ± 4.8%
OC1(c2ccc(Cl)cc2)CCN(Cc2c[nH]c3ccccc23)CC1	percent Bodipy-positive cells	[1]	99.81 ± 0.27%
CCc1cn([C@H]2C[C@H](O)[C@@H](CO)O2)c(=O)[nH]c1=O [Edoxudine]	percent Bodipy-positive cells	library stock concentration: 7.8 mM	24.1 ± 12%
same	percent Bodipy-positive cells	[1]	60.6 ± 3.4%
O=C(NCc1cccc(O)c1)Nc1nc(-c2ccncc2)cs1	percent Bodipy-positive cells	[1]	100%
CCCCC/C=C\C[C@@H](O)/C=C/C=C/C=C\[C@@H](O)CCCC(=O)O [Leukotriene B4]	percent Bodipy-positive cells	library stock concentration: 100 uM	16.5 ± 15%
COc1cc2c(cc1C(F)(F)F)N(C(=O)Nc1cc(F)cc(-c3cccnc3)c1)CC2	percent Bodipy-positive cells	[1]	99.3 ± 1%
COC(=O)C1=CC[C@@]23CC[C@@H]([C@@](C)(/C=C/C=C(\C)C(=O)O)OC2=O)[C@@]3(OC(C)=O)CC1 [Pseudolaric Acid B]	percent Bodipy-positive cells	[2]	17.9 ± 4.3%
O=c1[nH]c(=O)n(C2CCCO2)cc1F (configuration not stated) [Ftorafur]	percent Bodipy-positive cells	[1]	7.58 ± 2.3%
O=c1[nH]c(=O)n(C2CCCO2)cc1F (configuration not stated)	percent Bodipy-positive cells	[3]	7.79 ± 1.7%
same	percent Bodipy-positive cells	[1]	7.44% and 9.57%
Cc1cc2c(F)c(Oc3ncnn4cc(OC[C@@H](C)OC(=O)[C@H](C)N)c(C)c34)ccc2[nH]1	percent Bodipy-positive cells	[3]	9.92 ± 2.7%
